Assay results published in patent publication US20200131266A1 (STCUBE, published 2020).
Results are given in words; binding and its absence hold for the method and conditions named. Some binding calls cover weakened binding; strength is not graded here. Where a sequence is shown, tags or fusion partners need not be part of it.

T1: human IgG1-Fc-tagged mouse BTN1A1-ECD (dimer) (mouse; human) (UniProt Q62556)
T1 sequence: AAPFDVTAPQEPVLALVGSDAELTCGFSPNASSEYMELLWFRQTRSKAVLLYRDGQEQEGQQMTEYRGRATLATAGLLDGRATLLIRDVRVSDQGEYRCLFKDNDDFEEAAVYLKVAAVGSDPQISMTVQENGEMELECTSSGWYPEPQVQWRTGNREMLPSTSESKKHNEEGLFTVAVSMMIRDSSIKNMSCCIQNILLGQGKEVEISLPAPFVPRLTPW


Experiments:
[1] = biological target: T1, human IgG1-Fc-tagged mouse BTN1A1-ECD (dimer) (mouse; human); test: SPR (Biacore), STC1011 captured on the chip, mouse BTN1A1-ECD-Fc injected at 2-64 nM, control flow cell subtracted
[2] = biological target: T1, human IgG1-Fc-tagged mouse BTN1A1-ECD (dimer) (mouse; human); test: SPR (BIAcore), antibody immobilized on a Protein A-CM5 chip
[3] = biological target: T1, human IgG1-Fc-tagged mouse BTN1A1-ECD (dimer) (mouse; human); test: SPR (Biacore)
[4] = biological target: T1, human IgG1-Fc-tagged mouse BTN1A1-ECD (dimer) (mouse; human); test: SPR (Biacore), STC1029 captured on the chip, mouse BTN1A1-ECD-Fc injected at 2-64 nM, control flow cell subtracted

binding [1]	binding [2]	binding [3]	binding [4]	Binder
binds	binds	binds		STC1011 (antibody, V domains shown) VH: EVQLQQSGPELVKPGDSVKMSCKASGYTFTDYYMDWVKQSHGKSLEWIGYISPNNGGTKYNQKFKGKATLTVDKSSSTAYMELHSLTSEDSAVYYCAREPDLLYYFDYWGQGTTLTVSS VL: DIVMSQSPSSLAVSVGEKVIMSCKSSQSLLYFSNQKNYLAWYQQKPGQSPRLLIYWASTRESGVPDRFTGSGSGTDFTLTISSVKAEDLAVYYCQQYYSYPWTFGGGTKLEIK
	binds	binds	binds	STC1029 (antibody, V domains shown) VH: EVQLQQSGPELVKPGASVKISCKASGYSFTGYFMNWVKQSHGKSLEWIGRINPYNGDTFYNQKFKDKATLTVDTSSSTAHMELRSLTSEESAVYYCARWTTVINFDYWGQGTTLTVSS VL: SIVMTQTPKFLLVSAGDRVTITCKASQSVSYDVVWYQQKPGQSPKLLMYYVSNRYTGVPDRFTGSGYGTDFTFTISTVQAEDLAVYFCQQDYSSPPTFGGGTKLEIK
